Measured values as given in PubChem BioAssay AID1347423 (Functional Genomics Laboratory (NCATS/FGL), 2020).
In all, about 52,000 sequences went through this assay and about 210 (0.4%) were called active.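 Rule for the calls: active = gene whose silencing raises cell survival under the drug, median off-target-corrected z-score across its silencing RNAs 2 or more; inactive = the rest.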 The list shows a part of the results.

assay: Resistance to Poly (ADP-Ribose) Polymerase inhibitor: Gene Identification via Genome-wide siRNA Screen; conditions: mouse BRCA2 R2336H ES cells, olaparib, CellTiter-Glo viability; hits give high values
Summary of the method: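 Genome-wide siRNA screen (3 siRNAs/gene, 20 nM) in mouse ES cells carrying hypomorphic BRCA2 R2336H; olaparib 500 nM added 48 h post-transfection, CellTiter-Glo viability 72 h later. Normalized to plate-median negative control; MAD z-scores, gene median, seed-adjusted.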

| Sequence | z-score |
| --- | --- |
| GGAGAAAUGGUACAAGGUCTT against Nxf2 | inactive: 0.783 |
| GGCCUAAUAUUUUCAUAGATT against Prdx6-rs1 | inactive: -0.514 |
| GGAGAAGUUGGCAAAGAUGTT against Col9a3 | inactive: 2.69 |
| GGAGAGCACGAUAACAAGATT against Fabp5 | inactive: -0.938 |
| GGUCCUUGGUAAUCAAAUATT against Zc3hdc7 | inactive: -1.19 |
| GGCUUGUUUAUGUGUAAUUTT against Bccip | inactive: -2.71 |
| GCAAGAGUUACUUCUUAUUTT against Hdac9 | inactive: -0.212 |
| GCUGAGUGAUCGAUCUUAATT against 0610012C01Rik | inactive: -0.292 |
| GGUGUUGGCUCACAACCAATT against 8430419L09Rik | inactive: -0.187 |
| GGAGAUCCAUAUCAAUGGGTT against BC023151 | inactive: -0.551 |
| GGCUUUAAAAGCCUAUAUGTT against 4933400A11Rik | inactive: 0.416 |
| GGAGGAAGAAGAGAAAGCCTT against Ppm1f | inactive: -0.1 |
| GGAGCAAUUAAAGGUGUCATT against Fpr-rs3 | inactive: -0.893 |
| GGGUAACAUUAGGAGAGUUTT against B230342M21Rik | inactive: -2.04 |
| GCAACUGUUACUUCUCAACTT against 4933421E11Rik | inactive: 0.651 |
| GGGACUAUAAGGAACCAGGTT against Fmo3 | inactive: -1.19 |
| GCUUAACACAAAAUAAGGCTT against Tph2 | inactive: -0.0384 |
| GGCUUGAGACAUUUUUCAATT against A330080J22Rik | inactive: -0.00542 |
| GGUCAUAGUUUCUGAAUGATT against Cdx4 | inactive: -1.2 |
| CCUAACUAUUGUAGUAGCATT against Thrsp | inactive: 0.821 |
| GGAAGCUACAUGCUGUUCCTT against Anln | inactive: -0.833 |
| GGAGAAAAACAAAGAACACTT against Aif1 | inactive: -0.0248 |
| GGUGCACCUGAUGUACAAGTT against Trim25 | inactive: 0.549 |
| GGAGCGCGUGAAACUGUCUTT against Fbxw4 | inactive: -2 |
| AGGUCACCAAACGUGAUGATT against Rc3h1 | inactive: 0.725 |
| GGUUGAUGCCAUGAAGUCCTT against Acyp2 | inactive: 1.37 |

| Sequence | z-score |
| --- | --- |
| CCAGGGUUUAGCCUUUUGATT against E030010A14 | inactive: -0.0457 |
| CGAUUUUUUUGCCCUCCUCTT against Rbpsuh | inactive: -0.0113 |
| GGCAGAGCCAGGAUGUCUUTT against Msmb | inactive: -0.504 |
| GGAGAAUUAACUGUUCCUCTT against Kcnmb2 | inactive: -1.2 |
| GGACAGUUUUAAAGAAGAATT against BC057893 | inactive: -0.837 |
| GGUUAUUCUGGUACAGGUUTT against Fndc3 | inactive: -0.227 |
| CGUUUUUAUGAGGAGGCCUTT against C330016O10Rik | inactive: -1.57 |
| GGUCUCAGACACCUGACUCTT against D630048P19Rik | inactive: 1.12 |
| GGCCAAUAAAGGAAAGAAATT against 4930578I06Rik | inactive: 0.00313 |
| GGAAGCUUUCCAAUGGCUGTT against Cyp2c29 | inactive: -0.543 |
| GGCUGAAAAAUGCUUGAUUTT against Dhdds | inactive: 1.15 |
| GGUAAUCGUGUAUUCAUAUTT against 2410012M04Rik | inactive: -1.89 |
| CCAGUUUCAGAUCAGAUUATT against 6430604K15Rik | inactive: 0.508 |
| GCAUCUGCUAUGGGAAGACTT against 1810054D07Rik | inactive: 0.63 |
| GGACAGAGAACAGUUGAUGTT against Mrps9 | inactive: -0.833 |
| CCUGUAGGUGGAAUAAACATT against 9430062J17Rik | inactive: -0.0774 |
| GCUAGAGUAGCUUUGGGCATT against Glra3 | inactive: -0.402 |
| GCUGAUAAAGUUUUUGUCUTT against Tas2r104 | inactive: 0.3 |
| GGAACUGGAGCAACUCAUUTT against Rutbc2 | inactive: -1.79 |
| CCAUUUAACCGUAAGACGUTT against Krtap8-2 | inactive: 0.535 |
| GGUGUUGUAUUCAGGCUGGTT against Slc41a1 | inactive: -0.387 |
| GGACCAGUUACAGAUGUGGTT against Dyt1 | inactive: 0.056 |
| GGGAACACAGCUAUUUCCUTT against Olfr808 | inactive: -0.275 |
| GGCUAUGAGUUUUUCUAUUTT against Sart3 | inactive: 0.199 |
| GGAUCCAAGGCAAAGAUGUTT against Fto | inactive: 0.396 |
| CCCACCCUAAAUUUAGGAUTT against D630048P19Rik | inactive: 0.161 |

| Sequence | z-score |
| --- | --- |
| GCUAGUGAUGCUCUUACAGTT against D430038H04Rik | inactive: 1.43 |
| CCGGUACAAUUCCUGUGAUTT against Attp | inactive: -2.15 |
| CCUUGAUGGAUGUUACCAATT against Asah1 | inactive: -0.196 |
| GCAUUAUGGAAAGUUGGAGTT against Gabra4 | inactive: 2.35 |
| GGACUCAUGUUCAACACAGTT against 1500031M22Rik | inactive: 0.88 |
| CCAUGGAAUUCAAUUCCUUTT against F830104D24Rik | inactive: 1.03 |
| GGUAGCUGUCAACAAGGCATT against Akt2 | inactive: -0.0746 |
| GGACUUCUAUGAUUGGCUGTT against Por | inactive: 0.217 |
| GGAACCAAUCCACCUGAUUTT against Tas2r136 | inactive: 0.424 |
| GGCUAACCCUUUCAAGGAGTT against Cib1 | inactive: -0.244 |
| GGAUUCAUAGACUUCAUAGTT against Impdh1 | inactive: 1.98 |
| GGAGACAUAUGAAGAGAUATT against Lsm3 | inactive: -1.07 |
| CGAGGGAUAAGAGUCUACGTT against D4Bwg1540e | inactive: -0.0629 |
| GGCUGACCUAAAGAAGGAGTT against Cnot3 | inactive: 0.0216 |
| CCUGAAGCCUCAAUACACATT against Ugt1a1 | inactive: 0.505 |
| CGAAAGAAGUCAAUACAGATT against BC059177 | inactive: 0.797 |
| GGAGUUCACCAGCUACCAATT against Myoz3 | inactive: -0.000122 |
| CCAGGUGAUGUCUAGAUAATT against Edg8 | inactive: 0.116 |
| GGAGUUUGGGAACACUUUGTT against Apoc1 | inactive: -0.11 |
| CCUUGCUAGCCGCCACUUUTT against 0610038D11Rik | inactive: -2.03 |
| GGGAAAAUAUCUCAUAUCATT against LOC239447 | inactive: -0.57 |
| CGGAGAAGUCACCAAUACUTT against Tll1 | inactive: 0.566 |
| GGUUCUGAACACAUUUCCATT against Cyp2d13 | inactive: 0.236 |
| GGCCUGUUCUGAAGAACUATT against Gp2 | inactive: 0.594 |
| GCAUCCUUCUGAGUUGAUGTT against Tollip | inactive: -0.272 |
| GGGAACAAACCUUGAUUCUTT against Adam24 | inactive: -1.2 |

Some values from the list.
z-score, CGAAAGAAGUCAAUACAGATT against BC059177 is entered as inactive: 0.797
z-score, GCUAGUGAUGCUCUUACAGTT against D430038H04Rik is entered as inactive: 1.43
z-score, GGGAAAAUAUCUCAUAUCATT against LOC239447 is entered as inactive: -0.57
z-score, GGGAACAAACCUUGAUUCUTT against Adam24 is entered as inactive: -1.2
z-score, GGAUUCAUAGACUUCAUAGTT against Impdh1 is entered as inactive: 1.98

Carrying on:

| Sequence | z-score |
| --- | --- |
| GGCUUCCACGUAAUUGUCCTT against E130112H22Rik | inactive: 0.38 |
| GGAGAGAGCUCAGGAAUGATT against Rpp25 | inactive: -1.81 |
| GGUGAUCAAACUGAUGGACTT against BC021523 | inactive: 0.033 |
| CCUCUAUAAAUAGCAUAGUTT against Olfr860 | inactive: -0.792 |
| GGAUGAAGAUGAAAAAGAUTT against Hoxc9 | inactive: -1.44 |
| GGGCCUUCAACUUAACUUUTT against 4930504E06Rik | inactive: -1.91 |
| GGUUGUUGCGCAAAUUUAATT against 4933425M15Rik | inactive: 0.535 |
| GGCUUCCAGAUGGACGAGATT against Prkag3 | inactive: -1.35 |
| GGCUAUUUCUUUUUAUGCUTT against Ak4 | inactive: 0.298 |
| GGUAAAGAGCAGUGAUAUCTT against Pls3 | inactive: 0.274 |
| GGAAGAAAUUCGAUGAUGATT against Mcrs1 | inactive: 1.11 |
| GCACGCAUUAAAUUCAAAGTT against Magea9 | inactive: 0.467 |
| GGUCUUACGCAAAACGGUCTT against Csf1r | inactive: 0.0802 |
| GGAAGAAAGAUCUAUGAACTT against 2410012M04Rik | inactive: 0.789 |
| GGGUUAGGUUUUGAUGUAATT against Abhd5 | inactive: 0.198 |
| GCAACAUGAAGAUAAGUGCTT against Zbtb1 | inactive: 0.522 |
| GCAACUAUCUCCUAUAAGGTT against 8430416H19Rik | inactive: -0.334 |
| CCACUUUGGUGUAUAGUCATT against Hnrpab | inactive: 0.572 |
| CCUUCUCCAUGUCAGAUCUTT against Col5a2 | inactive: 0.0578 |
| CGCAGAAACACAGUCCACATT against Cntfr | inactive: 1.06 |
| GGAUCCAUUGAGCUCUGUCTT against Poln | inactive: 1.04 |
| GCCGGUUUACUGCCUAAAATT against B930037P14Rik | inactive: -0.585 |
| GGACCUCAAGGCACUAAUATT against Car7 | inactive: -0.82 |
| GAAAGAACUGUGGCUUCCCTT against Tff2 | inactive: -1.59 |
| GCAGGAACCAUACUCUACATT against Centa1 | inactive: -0.72 |
